Measurements reported in article PMC6715699.
These are yes or no findings as the source states them, for the method shown. For some assays here: In cells and extracts the contact can be indirect. Some entries that bind do so weakly or less than the wild type.

Chains of the proteins cited; added tags and fusions are not shown. Lines headed by an entry give the natural chain unless they say otherwise; changes in a name come on top. A line that says so, or that is headed by a name, gives the form on record, which may keep a tag or linker. Residues count along the entry.
UniProt P12956: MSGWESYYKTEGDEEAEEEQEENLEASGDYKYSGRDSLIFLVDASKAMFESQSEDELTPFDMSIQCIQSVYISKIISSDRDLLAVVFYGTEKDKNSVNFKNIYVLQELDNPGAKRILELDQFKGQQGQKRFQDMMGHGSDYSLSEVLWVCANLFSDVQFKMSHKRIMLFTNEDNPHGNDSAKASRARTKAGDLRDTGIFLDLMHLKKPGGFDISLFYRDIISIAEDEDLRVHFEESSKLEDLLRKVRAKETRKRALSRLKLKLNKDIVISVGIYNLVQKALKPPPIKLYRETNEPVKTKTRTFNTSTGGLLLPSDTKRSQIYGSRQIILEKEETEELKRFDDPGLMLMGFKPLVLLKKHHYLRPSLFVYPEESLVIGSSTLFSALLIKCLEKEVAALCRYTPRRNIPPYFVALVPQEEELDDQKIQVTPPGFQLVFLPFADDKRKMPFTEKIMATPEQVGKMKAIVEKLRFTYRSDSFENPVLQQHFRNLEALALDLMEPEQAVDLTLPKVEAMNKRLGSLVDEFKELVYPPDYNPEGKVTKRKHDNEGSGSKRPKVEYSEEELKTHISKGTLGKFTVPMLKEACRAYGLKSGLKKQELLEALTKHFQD
MYC-tagged Ku70 1-573: residues 1-573 of P12956
MYC-tagged Ku70 257-609: residues 257-609 of P12956
MYC-tagged Ku70 464-609: residues 464-609 of P12956
UniProt Q06330: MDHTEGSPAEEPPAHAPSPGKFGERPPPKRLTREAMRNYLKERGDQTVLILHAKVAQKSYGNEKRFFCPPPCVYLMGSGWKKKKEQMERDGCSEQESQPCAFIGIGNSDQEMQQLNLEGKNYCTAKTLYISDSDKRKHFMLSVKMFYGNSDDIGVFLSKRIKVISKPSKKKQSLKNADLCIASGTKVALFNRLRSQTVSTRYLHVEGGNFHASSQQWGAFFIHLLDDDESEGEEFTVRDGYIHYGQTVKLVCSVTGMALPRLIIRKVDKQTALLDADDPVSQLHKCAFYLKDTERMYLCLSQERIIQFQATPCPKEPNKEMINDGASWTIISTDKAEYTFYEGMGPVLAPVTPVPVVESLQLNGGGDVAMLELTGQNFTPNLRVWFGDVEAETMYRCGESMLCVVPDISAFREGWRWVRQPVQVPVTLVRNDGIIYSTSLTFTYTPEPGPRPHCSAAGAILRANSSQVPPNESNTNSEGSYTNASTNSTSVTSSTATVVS
FLAG-tagged CSL BTD (166–334): residues 166-334 of Q06330
UniProt P13010: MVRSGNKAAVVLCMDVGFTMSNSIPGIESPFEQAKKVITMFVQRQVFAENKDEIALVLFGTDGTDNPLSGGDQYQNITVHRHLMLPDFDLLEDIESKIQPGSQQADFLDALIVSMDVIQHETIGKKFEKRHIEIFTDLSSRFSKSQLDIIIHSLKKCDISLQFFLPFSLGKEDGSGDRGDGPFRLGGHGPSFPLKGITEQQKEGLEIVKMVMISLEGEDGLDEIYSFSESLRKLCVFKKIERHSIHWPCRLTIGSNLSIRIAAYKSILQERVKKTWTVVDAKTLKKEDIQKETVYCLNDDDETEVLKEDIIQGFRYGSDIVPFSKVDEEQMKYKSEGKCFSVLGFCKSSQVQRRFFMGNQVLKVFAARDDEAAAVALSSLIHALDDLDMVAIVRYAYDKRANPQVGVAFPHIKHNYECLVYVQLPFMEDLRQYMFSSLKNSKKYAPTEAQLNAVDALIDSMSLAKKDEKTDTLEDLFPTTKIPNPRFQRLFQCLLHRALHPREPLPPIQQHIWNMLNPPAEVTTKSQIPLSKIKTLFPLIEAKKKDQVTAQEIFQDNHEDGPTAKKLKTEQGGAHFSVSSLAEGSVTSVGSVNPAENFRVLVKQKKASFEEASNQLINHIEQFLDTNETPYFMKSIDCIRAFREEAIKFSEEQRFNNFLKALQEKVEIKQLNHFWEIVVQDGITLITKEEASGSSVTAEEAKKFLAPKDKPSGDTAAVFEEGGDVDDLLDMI

Key:
[1] = target: MYC-tagged Ku70 1-573 (human) (UniProt P12956); experiment: co-IP; HEK293T cells expressing MYC-tagged Ku70 FL or truncations plus/minus FL CSL; anti-cMYC magnetic beads, immunoblotting
[2] = target: MYC-tagged Ku70 257-609 (human) (UniProt P12956); experiment: as above
[3] = target: MYC-tagged Ku70 464-609 (human) (UniProt P12956); experiment: as above
[4] = target: T1, UPF1 (Up-Frameshift Suppressor 1 Homolog), endogenous (human (endogenous in HDFs)) (UniProt Q92900); experiment: co-IP; sequential: endogenous CSL immunoprecipitated from HDFs, the eluate immunoprecipitated with anti-UPF1 antibody or non-immune IgG; immunoblotting with CSL, UPF1, Ku70 and Ku80 antibodies
T1 sequence: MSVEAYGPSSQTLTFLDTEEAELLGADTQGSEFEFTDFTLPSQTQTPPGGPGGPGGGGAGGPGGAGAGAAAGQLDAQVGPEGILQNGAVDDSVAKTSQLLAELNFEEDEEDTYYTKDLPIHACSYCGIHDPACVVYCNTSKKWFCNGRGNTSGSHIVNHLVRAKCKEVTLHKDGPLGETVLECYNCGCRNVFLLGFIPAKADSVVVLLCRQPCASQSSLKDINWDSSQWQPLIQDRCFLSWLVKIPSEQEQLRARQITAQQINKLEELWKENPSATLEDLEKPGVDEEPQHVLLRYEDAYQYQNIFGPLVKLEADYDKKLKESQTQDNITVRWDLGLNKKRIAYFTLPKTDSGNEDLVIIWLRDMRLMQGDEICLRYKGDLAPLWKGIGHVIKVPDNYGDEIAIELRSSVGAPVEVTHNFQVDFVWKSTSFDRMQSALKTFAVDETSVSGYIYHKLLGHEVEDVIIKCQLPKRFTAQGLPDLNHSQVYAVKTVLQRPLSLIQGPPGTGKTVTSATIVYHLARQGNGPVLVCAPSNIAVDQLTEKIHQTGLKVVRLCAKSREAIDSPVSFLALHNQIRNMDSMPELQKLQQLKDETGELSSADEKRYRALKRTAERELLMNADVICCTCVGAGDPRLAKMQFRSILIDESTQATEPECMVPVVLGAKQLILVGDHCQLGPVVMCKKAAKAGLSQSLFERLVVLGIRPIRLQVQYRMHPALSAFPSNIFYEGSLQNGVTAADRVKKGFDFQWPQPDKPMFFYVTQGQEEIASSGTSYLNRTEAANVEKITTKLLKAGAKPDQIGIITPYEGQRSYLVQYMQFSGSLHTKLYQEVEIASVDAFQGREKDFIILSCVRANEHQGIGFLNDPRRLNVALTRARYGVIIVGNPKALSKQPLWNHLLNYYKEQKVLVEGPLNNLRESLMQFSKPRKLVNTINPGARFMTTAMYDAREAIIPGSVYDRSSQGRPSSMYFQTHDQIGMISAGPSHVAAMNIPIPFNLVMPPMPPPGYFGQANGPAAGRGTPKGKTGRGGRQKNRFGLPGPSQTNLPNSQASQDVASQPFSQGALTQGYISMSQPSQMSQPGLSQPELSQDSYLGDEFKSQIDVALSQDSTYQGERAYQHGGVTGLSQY

[5] = target: CSL (RBP-Jκ), endogenous (human (endogenous in HDFs)) (UniProt Q06330); experiment: as above
[6] = target: CSL (RBP-Jκ), endogenous (human (endogenous in HDFs)) (UniProt Q06330); experiment: co-IP; HDF lysates, anti-CSL antibodies or non-immune IgG, immunoblotting; endogenous proteins
[7] = target: CSL (RBP-Jκ), endogenous (human (endogenous in HDFs)) (UniProt Q06330); experiment: proximity ligation; Duolink PLA kit on fixed HDFs; HDFs with silenced CSL as negative control
[8] = target: FLAG-tagged CSL BTD (166–334) (human) (UniProt Q06330); experiment: co-IP; HEK293T cells expressing FLAG-tagged CSL FL, BTD or point mutants plus/minus FL UPF1 or FL Ku70; anti-FLAG M2 magnetic beads, immunoblotting
[9] = target: FLAG-tagged full length (FL) CSL (human) (UniProt Q06330); experiment: as above
[10] = target: purified recombinant CSL (UniProt Q06330); experiment: MST; labelled CSL (RED-NHS) at 1 µM with two-fold dilutions of unlabeled UPF1 or Ku70 (9 µM to 0.27 nM); labeled UPF1 at 1 µM with unlabeled Ku70 (4 µM to 0.12 nM); standard MST buffer, room temperature 20 min; Monolith NT.115; both purified
[11] = target: FLAG-tagged CSL F235R (human) (UniProt Q06330); experiment: co-IP; HEK293T cells expressing FLAG-tagged CSL FL, BTD or point mutants plus/minus FL UPF1 or FL Ku70; anti-FLAG M2 magnetic beads, immunoblotting
[12] = target: FLAG-tagged CSL Q307R (human) (UniProt Q06330); experiment: as above

Substance	binding [4]	binding [5]	binding [6]	binding [7]	binding [9]	also measured
FLAG-tagged full length (FL) CSL (from UniProt Q06330 1-500)	–	–	–	–	–	binding [1]: binds; binding [2]: binds; binding [3]: binds
Ku80, endogenous (from UniProt P13010 1-732)	binds	binds	binds	binds	–	–
Ku70 in HEK293T cells (Fig. 8c) (from UniProt P12956 1-609)	–	–	–	–	binds	binding [8]: binds
purified recombinant Ku70 (from UniProt P12956 1-609)	–	–	–	–	–	binding [10]: binds
MYC-tagged full length (FL) Ku70 (from UniProt P12956 1-609)	–	–	–	–	binds	binding [11]: binds; binding [12]: binds
Ku70, endogenous (from UniProt P12956 1-609)	binds	binds	binds	binds	–	–
